The list shows a part of the results.
Legend:
Test in all cases: glycan array binding signal (z-score within array); higher = stronger binding
Conditions in all cases: glycan notation: IUPAC condensed, linker removed
[1] = target: Neu5Ac(a2-3)GalNAc(b1-4)GlcNAc
Outline: (§1)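 Arrays were curated from the Consortium for Functional Glycomics database, 3228 in total, and kept only where the protein sequence was available. Binding is expressed as a within-array Z-score. This score was averaged across arrays of the same protein sequence at different concentrations or buffers and across linkers, and negative values can be read as non-binding.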

[2] = target: Neu5Ac(a2-3)[GalNAc(b1-4)]Gal(b1-4)Glc
Outline: as §1

[3] = target: Neu5Ac(a2-3)[GalNAc(b1-4)]Gal(b1-4)GlcNAc
Outline: as §1

[4] = target: Neu5Ac(a2-3)[Neu5Ac(a2-6)]GalNAc
Outline: as §1

[5] = target: Neu5Ac(a2-6)Gal(b1-4)GlcNAc
Outline: as §1

[6] = target: Neu5Ac(a2-6)Gal(b1-4)GlcNAc(b1-2)Man(a1-3)[Neu5Ac(a2-6)Gal(b1-4)GlcNAc(b1-2)Man(a1-6)]Man(b1-4)GlcNAc(b1-4)GlcNAc
Outline: as §1

[7] = target: Neu5Ac(a2-6)Gal(b1-4)GlcNAc(b1-3)Gal(b1-4)GlcNAc
Outline: as §1

[8] = target: Neu5Ac(a2-6)Gal(b1-4)GlcNAc(b1-3)Gal(b1-4)[Fuc(a1-3)]GlcNAc(b1-3)Gal(b1-4)[Fuc(a1-3)]GlcNAc
Outline: as §1

[9] = target: Neu5Ac(a2-6)Gal(b1-4)GlcNAc6S
Outline: as §1

Neu5Ac(a2-6)GalNAc = target: Neu5Ac(a2-6)GalNAc
Outline: as §1

[10] = target: Neu5Ac(a2-6)GalNAc(b1-4)GlcNAc
Outline: as §1

Neu5Ac(a2-8)Neu5Ac = target: Neu5Ac(a2-8)Neu5Ac
Outline: as §1

[11] = target: Neu5Ac(a2-8)Neu5Ac(a2-3)Gal(b1-4)Glc
Outline: as §1

[12] = target: Neu5Ac(a2-8)Neu5Ac(a2-3)[GalNAc(b1-4)]Gal(b1-4)Glc
Outline: as §1

[13] = target: Neu5Ac(a2-8)Neu5Ac(a2-8)Neu5Ac
Outline: as §1

[14] = target: Neu5Ac(a2-8)Neu5Ac(a2-8)Neu5Ac(a2-3)Gal(b1-4)Glc
Outline: as §1

[15] = target: Neu5Ac(a2-8)Neu5Ac(a2-8)Neu5Ac(a2-3)[GalNAc(b1-4)]Gal(b1-4)Glc
Outline: as §1

[16] = target: Neu5Ac(a2-8)Neu5Ac(a2-8)Neu5Ac(a2-8)Neu5Ac(a2-3)[GalNAc(b1-4)]Gal(b1-4)Glc
Outline: as §1

[17] = target: Neu5Ac9Ac(a2-6)Gal(b1-4)GlcNAc
Outline: as §1

[18] = target: Neu5Gc(a2-3)Gal(b1-3)GlcNAc
Outline: as §1

[19] = target: Neu5Gc(a2-3)Gal(b1-3)[Fuc(a1-4)]GlcNAc
Outline: as §1

Neu5Gc(a2-3)Gal(b1-4)Glc = target: Neu5Gc(a2-3)Gal(b1-4)Glc
Outline: as §1

[20] = target: Neu5Gc(a2-3)Gal(b1-4)GlcNAc
Outline: as §1

[21] = target: Neu5Gc(a2-3)Gal(b1-4)[Fuc(a1-4)]GlcNAc
Outline: as §1

[22] = target: Neu5Gc(a2-6)Gal(b1-4)GlcNAc
Outline: as §1

Neu5Gc(a2-6)GalNAc = target: Neu5Gc(a2-6)GalNAc
Outline: as §1

B1: NKp30 (Homo sapiens), O14931 (protein)
chain: LWVSQPPEIRTLEGSSAFLPCSFNASQGRLAIGSVTWFRDEVVPGKEVRNGTPEFRGRLAPLASSRFLHDHQAELHIRDVRGHDASIYVCRVEVLGLGVGTGNGTRLVVEKEHPQLG
glycan array binding signal (z-score) [1]: -0.301 | glycan array binding signal (z-score) [2]: -0.062 | glycan array binding signal (z-score) [3]: -0.354 | glycan array binding signal (z-score) [4]: -0.269 | glycan array binding signal (z-score) [5]: -0.409 | glycan array binding signal (z-score) [6]: -0.02 | glycan array binding signal (z-score) [7]: 0.506 | glycan array binding signal (z-score) [8]: -0.472 | glycan array binding signal (z-score) [9]: 1.26 | glycan array binding signal (z-score) (Neu5Ac(a2-6)GalNAc): -0.787 | glycan array binding signal (z-score) [10]: -0.355 | glycan array binding signal (z-score) (Neu5Ac(a2-8)Neu5Ac): -0.006 | glycan array binding signal (z-score) [11]: -0.378 | glycan array binding signal (z-score) [12]: -0.18 | glycan array binding signal (z-score) [13]: 0.13 | glycan array binding signal (z-score) [14]: 0.125 | glycan array binding signal (z-score) [15]: -0.186 | glycan array binding signal (z-score) [16]: 0.661 | glycan array binding signal (z-score) [17]: -0.472 | glycan array binding signal (z-score) [18]: -0.529 | glycan array binding signal (z-score) [19]: -0.522 | glycan array binding signal (z-score) (Neu5Gc(a2-3)Gal(b1-4)Glc): -0.116 | glycan array binding signal (z-score) [20]: -0.604 | glycan array binding signal (z-score) [21]: -0.262 | glycan array binding signal (z-score) [22]: 0.109 | glycan array binding signal (z-score) (Neu5Gc(a2-6)GalNAc): 0.43

Reference: the supplement of paper PMC8728848
